Results on 35 molecules are retold here after the supplement of paper PMC10735217.

For the assay, the system named is HEK293A TEAD-LUC reporter. The assay can be described thus: TEAD-luciferase reporter activity (YAP activation), robust Z score vs plate; higher = stronger YAP/TEAD activation. Particulars: 24 h.

Structures can show the parent of a compound that is named as a salt. This is one part of the list. Single values are uncertain here, since repeats match poorly.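 The human kidney-derived cells carry a stably integrated construct of eight TEAD-binding elements driving luciferase, read by luminescence in a drug-repurposing library screen. A compound counts as a hit when its signal is more than five robust Z scores above the plate mean.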

As to `O=C(NNC(=O)[C@@H]1CC[C@@H]2CN1C(=O)N2OS(=O)(=O)O)[C@@H]1CCCNC1` [Zidebactam], the TEAD-luciferase reporter activity was inactive: 2.87 (compound concentration: 200 nM), inactive: 3.9 (compound concentration: 2 uM) and inactive: 0.246 (compound concentration: 10 uM).

On to `Cc1ccc2c(Br)cc(Br)c(OC(=O)c3ccc(F)cc3)c2n1`, for which the TEAD-luciferase reporter activity is inactive: -0.719 (compound concentration: 200 nM), inactive: 0.746 (compound concentration: 2 uM) and inactive: 1.69 (compound concentration: 10 uM).

Take `CCCCC(CC)CNC(=N)NC(=N)NCCCCCCNC(=N)NC(=N)NCC(CC)CCCC` (centres undefined) [Alexidine dihydrochloride]: the TEAD-luciferase reporter activity (compound concentration: 200 nM) is inactive: -1.68 and the TEAD-luciferase reporter activity (compound concentration: 10 uM) is inactive: 1.21.

For `CCCCC(CC)CNC(=N)NC(=N)NCCCCCCNC(=N)NC(=N)NCC(CC)CCCC` (centres undefined), under “compound concentration: 2 uM”, the TEAD-luciferase reporter activity was inactive: -0.894.

With `COc1cc2nc(N3CCN(C(=O)COc4c(OC)cccc4C(C)C)CC3)nc(N)c2cc1OC`, the TEAD-luciferase reporter activity by setting is: (compound concentration: 200 nM) inactive: -0.246; (compound concentration: 2 uM) inactive: -0.596; (compound concentration: 10 uM) inactive: -0.716.

Take `NS(=O)(=O)c1c(Cl)ccc(NC(=O)Nc2cccc(Cl)c2Cl)c1O`: the TEAD-luciferase reporter activity was inactive: -0.662 (compound concentration: 200 nM), inactive: -0.0381 (compound concentration: 2 uM) and inactive: -0.00558 (compound concentration: 10 uM).

For the molecule `CCCN1CCCC1CNC(=O)c1cc(S(N)(=O)=O)ccc1OC` (centres undefined) [Prosulpride], the TEAD-luciferase reporter activity is, setting by setting: (compound concentration: 200 nM) inactive: -1.06; (compound concentration: 2 uM) inactive: -0.326; (compound concentration: 10 uM) inactive: 0.273.

As to `CCOc1ccc(-c2nn3ncccc3c2-c2ccc(S(C)(=O)=O)cc2)cc1`, the TEAD-luciferase reporter activity reads like this: (compound concentration: 200 nM) inactive: 0.326; (compound concentration: 2 uM) inactive: -1.1; (compound concentration: 10 uM) inactive: -2.03.

As to `CNC(=O)c1c(C)oc2cc(Oc3ccnc4cc(OCCN5CCOCC5)ccc34)ccc12`, the TEAD-luciferase reporter activity by setting is: (compound concentration: 200 nM) active: 10.4; (compound concentration: 2 uM) inactive: -0.27; (compound concentration: 10 uM) inactive: -0.0586.

In the case of `CC#CCC(C)[C@H](O)/C=C/C1[C@H](O)C[C@@H]2Oc3c(CCCC(=O)O)cccc3[C@H]12` (some centres undefined) [beraprost sodium], the TEAD-luciferase reporter activity by setting is: (compound concentration: 200 nM) inactive: -0.85; (compound concentration: 2 uM) inactive: 1.21; (compound concentration: 10 uM) inactive: 2.38.

As for `C[C@@]1(C(=O)Nc2ccc(F)nc2)CCCN1c1nc(Nc2cc(C3CC3)[nH]n2)c2cccn2n1`, the TEAD-luciferase reporter activity (compound concentration: 200 nM) is inactive: -2.18, the TEAD-luciferase reporter activity (compound concentration: 2 uM) is inactive: -2.42 and the TEAD-luciferase reporter activity (compound concentration: 10 uM) was inactive: 1.92.

Take `O[C@@H]1CO[C@H]2[C@@H]1OC[C@H]2Oc1nc2nc(-c3ccc(-c4ccccc4)cc3)c(Cl)cc2[nH]1`: the TEAD-luciferase reporter activity runs as follows: (compound concentration: 200 nM) inactive: -0.218; (compound concentration: 2 uM) inactive: -1.03; (compound concentration: 10 uM) inactive: -1.34.

As to `OC[C@H]1O[C@@H](c2ccc(F)c(Cc3cc4ccccc4s3)c2)[C@H](O)[C@@H](O)[C@@H]1O` [Ipragliflozin L-proline], the TEAD-luciferase reporter activity was inactive: -1.14 (compound concentration: 200 nM), inactive: -1.89 (compound concentration: 2 uM) and inactive: -2.29 (compound concentration: 10 uM).

As to `Cc1cc(Nc2ncc(F)c(N[C@H]3[C@@H](C(N)=O)[C@@H]4C=C[C@H]3C4)n2)ccc1N1CCN(C)CC1`, the TEAD-luciferase reporter activity is inactive: 0.759 (compound concentration: 200 nM), inactive: 1.9 (compound concentration: 2 uM) and inactive: 0.0309 (compound concentration: 10 uM).

As to `CCCN(CCCCN1C(=O)CC2(CCCC2)CC1=O)C1COc2cccc(C(C)=O)c2C1` (centres undefined), the TEAD-luciferase reporter activity runs as follows: (compound concentration: 200 nM) inactive: 0.835; (compound concentration: 2 uM) inactive: -1.3; (compound concentration: 10 uM) inactive: -0.00599.

`CC(=O)Nc1ccc(C(=O)Nc2ccccc2N)cc1` [CI994 (Tacedinaline)]: the TEAD-luciferase reporter activity is inactive: 0.132 (compound concentration: 200 nM) and inactive: 2.08 (compound concentration: 10 uM).

As for `CC(=O)Nc1ccc(C(=O)Nc2ccccc2N)cc1` [Tacedinaline], the TEAD-luciferase reporter activity (compound concentration: 2 uM) was active: 16.4.

In the case of `CCC1OC(=O)C(C)C(OC2CC(C)(OC)C(O)C(C)O2)C(C)C(OC2OC(C)CC(N(C)C)C2O)C(C)(O)CC(C)C(=O)C(C)C(O)C1(C)O` (centres undefined) [erythromycin, Andromaco], the TEAD-luciferase reporter activity reads like this: (compound concentration: 200 nM) inactive: -1.33; (compound concentration: 2 uM) inactive: -0.503; (compound concentration: 10 uM) inactive: 0.69.

For `CN(CCc1c[nH]c2ccccc12)c1ncnc2c1ncn2[C@@H]1O[C@H](C(=O)NC2CC2)[C@@H](O)[C@H]1O`, the TEAD-luciferase reporter activity reads like this: (compound concentration: 200 nM) inactive: 0.564; (compound concentration: 2 uM) inactive: -1.09; (compound concentration: 10 uM) inactive: 1.73.

For `Cc1cc2ncc(NC(=O)Nc3ccc(F)cc3F)c(-c3ccccc3Cl)c2cc1C`, the TEAD-luciferase reporter activity reads like this: (compound concentration: 200 nM) inactive: 0.217; (compound concentration: 2 uM) inactive: 2.39; (compound concentration: 10 uM) inactive: 3.5.

For `O=C(C1CCCN1C(=O)c1ccccc1)N1CCC(c2ccccc2)CC1` (centres undefined), the TEAD-luciferase reporter activity was inactive: 0.624 (compound concentration: 200 nM) and inactive: 2.96 (compound concentration: 10 uM).

Consider `CC(NC(=O)C(CS)C(C)c1ccccc1)C(=O)O` (centres undefined), for which the TEAD-luciferase reporter activity (compound concentration: 200 nM) is inactive: 1.24 and the TEAD-luciferase reporter activity (compound concentration: 10 uM) was inactive: -0.1.

For the molecule `COC(=O)C(C)c1cccc(C(c2ccccc2)n2ccnc2)c1` (centres undefined), the TEAD-luciferase reporter activity is inactive: 1.9 (compound concentration: 200 nM), inactive: -0.566 (compound concentration: 2 uM) and inactive: -0.236 (compound concentration: 10 uM).

Turning to `C[C@H](CNCCNC[C@@H](C)N1C(=O)c2cccc3cc([N+](=O)[O-])cc(c23)C1=O)N1C(=O)c2cccc3cc([N+](=O)[O-])cc(c23)C1=O` [Bisnafide mesilate], the TEAD-luciferase reporter activity is inactive: 0.854 (compound concentration: 200 nM), inactive: -1.71 (compound concentration: 2 uM) and inactive: 1.38 (compound concentration: 10 uM).

As to `N[C@H](CO)C(=O)O` [D-Serine], the TEAD-luciferase reporter activity runs as follows: (compound concentration: 200 nM) inactive: 2.07; (compound concentration: 2 uM) inactive: -0.404; (compound concentration: 10 uM) inactive: 0.162.

With `CC(COc1ccccc1)N(CCCl)Cc1ccccc1` (centres undefined) [Dibenzyline63-92-3], the TEAD-luciferase reporter activity by setting is: (compound concentration: 200 nM) inactive: -1.38; (compound concentration: 10 uM) inactive: 0.735.

With `CC(COc1ccccc1)N(CCCl)Cc1ccccc1` (centres undefined) [Phenoxybenzamine hydrochloride], the TEAD-luciferase reporter activity (compound concentration: 2 uM) was inactive: -1.17.

`COc1ccc2[nH]cc(CCNC(=O)CN)c2c1`: the TEAD-luciferase reporter activity (compound concentration: 200 nM) is inactive: 0.502, the TEAD-luciferase reporter activity (compound concentration: 2 uM) is inactive: -2.58 and the TEAD-luciferase reporter activity (compound concentration: 10 uM) is inactive: 0.74.

For the molecule `O=C(O)CCS[C@H](CC(=O)O)c1ccccc1CCCCCCCCc1ccccc1`, the TEAD-luciferase reporter activity was inactive: -1.17 (compound concentration: 200 nM), inactive: -1.43 (compound concentration: 2 uM) and inactive: 0.344 (compound concentration: 10 uM).

Take `CCNc1nc(OC)c(C(=O)NCC2CCCN2CC)nc1Cl` (centres undefined): the TEAD-luciferase reporter activity was inactive: -0.534 (compound concentration: 200 nM), inactive: -1.07 (compound concentration: 2 uM) and inactive: -0.986 (compound concentration: 10 uM).

As for `Cc1ccc2[nH]c(C(=O)O)c(NC(=O)c3ccccc3)c2c1`, the TEAD-luciferase reporter activity is active: 8.58 (compound concentration: 200 nM), inactive: -0.447 (compound concentration: 2 uM) and inactive: 1.71 (compound concentration: 10 uM).

`CC(C)(Oc1ccc(CCNC(=O)c2ccc(Cl)cc2)cc1)C(=O)O` [bezafibrate]: the TEAD-luciferase reporter activity is inactive: -2.02 (compound concentration: 200 nM), inactive: -1.04 (compound concentration: 2 uM) and active: 5.06 (compound concentration: 10 uM).

For the molecule `CCCC(=O)Nc1cc(-c2nn(C)c(=O)c3ccccc23)ccc1N1CCOCC1`, the TEAD-luciferase reporter activity is inactive: 0.401 (compound concentration: 200 nM), inactive: -0.111 (compound concentration: 2 uM) and inactive: 0.487 (compound concentration: 10 uM).

`CC(CO)(CO)NCc1ccc2c(c1)-c1cccc3cccc-2c13`: the TEAD-luciferase reporter activity reads like this: (compound concentration: 200 nM) inactive: 1.09; (compound concentration: 2 uM) inactive: 2.53; (compound concentration: 10 uM) inactive: 1.15.

As to `CC1(C)COC(=O)N1c1nc(-c2ccc(C#N)cc2)cs1`, the TEAD-luciferase reporter activity runs as follows: (compound concentration: 200 nM) inactive: -1.19; (compound concentration: 2 uM) inactive: -1.82; (compound concentration: 10 uM) inactive: -0.69.
